This is an account of results in PMC4332150.

The chains behind the UniProt entries cited, without tags or fusion partners.
UniProt Q9UKB1: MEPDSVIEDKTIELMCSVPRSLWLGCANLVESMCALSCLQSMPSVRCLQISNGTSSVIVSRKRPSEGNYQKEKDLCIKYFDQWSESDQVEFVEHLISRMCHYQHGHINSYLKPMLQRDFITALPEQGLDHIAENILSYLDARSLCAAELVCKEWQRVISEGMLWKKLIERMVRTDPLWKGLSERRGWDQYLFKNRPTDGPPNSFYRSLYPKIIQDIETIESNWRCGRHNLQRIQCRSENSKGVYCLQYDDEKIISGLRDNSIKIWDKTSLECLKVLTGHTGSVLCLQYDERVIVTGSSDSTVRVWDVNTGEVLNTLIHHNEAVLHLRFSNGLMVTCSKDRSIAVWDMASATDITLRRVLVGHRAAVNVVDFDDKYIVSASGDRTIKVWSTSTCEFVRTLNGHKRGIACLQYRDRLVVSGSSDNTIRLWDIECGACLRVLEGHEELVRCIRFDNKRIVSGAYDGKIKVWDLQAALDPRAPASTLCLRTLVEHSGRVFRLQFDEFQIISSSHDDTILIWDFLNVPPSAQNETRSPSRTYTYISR
UniProt P61244: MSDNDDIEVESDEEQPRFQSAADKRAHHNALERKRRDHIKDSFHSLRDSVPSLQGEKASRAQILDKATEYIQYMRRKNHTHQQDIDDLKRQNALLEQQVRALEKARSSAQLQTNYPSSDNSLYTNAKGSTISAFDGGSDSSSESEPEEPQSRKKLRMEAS
UniProt Q969R5: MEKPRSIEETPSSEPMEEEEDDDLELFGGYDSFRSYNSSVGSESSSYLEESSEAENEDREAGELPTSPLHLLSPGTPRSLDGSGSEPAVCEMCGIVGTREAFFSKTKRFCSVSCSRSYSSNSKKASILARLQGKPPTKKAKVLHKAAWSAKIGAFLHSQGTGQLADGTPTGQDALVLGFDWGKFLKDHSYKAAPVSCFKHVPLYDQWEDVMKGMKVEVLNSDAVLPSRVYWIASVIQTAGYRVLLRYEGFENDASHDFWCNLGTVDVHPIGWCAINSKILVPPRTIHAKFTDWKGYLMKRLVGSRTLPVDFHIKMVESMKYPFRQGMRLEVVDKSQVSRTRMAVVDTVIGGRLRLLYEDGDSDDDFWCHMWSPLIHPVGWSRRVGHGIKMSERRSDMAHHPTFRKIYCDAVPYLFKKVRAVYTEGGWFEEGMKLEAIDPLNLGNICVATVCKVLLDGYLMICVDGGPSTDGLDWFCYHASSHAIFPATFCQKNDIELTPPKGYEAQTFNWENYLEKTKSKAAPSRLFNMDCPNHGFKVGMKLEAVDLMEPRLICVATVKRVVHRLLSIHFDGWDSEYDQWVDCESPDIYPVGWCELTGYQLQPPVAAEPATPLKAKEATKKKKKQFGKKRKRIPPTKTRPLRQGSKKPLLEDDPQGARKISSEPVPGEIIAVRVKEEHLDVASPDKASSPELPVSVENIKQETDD
UniProt Q01167: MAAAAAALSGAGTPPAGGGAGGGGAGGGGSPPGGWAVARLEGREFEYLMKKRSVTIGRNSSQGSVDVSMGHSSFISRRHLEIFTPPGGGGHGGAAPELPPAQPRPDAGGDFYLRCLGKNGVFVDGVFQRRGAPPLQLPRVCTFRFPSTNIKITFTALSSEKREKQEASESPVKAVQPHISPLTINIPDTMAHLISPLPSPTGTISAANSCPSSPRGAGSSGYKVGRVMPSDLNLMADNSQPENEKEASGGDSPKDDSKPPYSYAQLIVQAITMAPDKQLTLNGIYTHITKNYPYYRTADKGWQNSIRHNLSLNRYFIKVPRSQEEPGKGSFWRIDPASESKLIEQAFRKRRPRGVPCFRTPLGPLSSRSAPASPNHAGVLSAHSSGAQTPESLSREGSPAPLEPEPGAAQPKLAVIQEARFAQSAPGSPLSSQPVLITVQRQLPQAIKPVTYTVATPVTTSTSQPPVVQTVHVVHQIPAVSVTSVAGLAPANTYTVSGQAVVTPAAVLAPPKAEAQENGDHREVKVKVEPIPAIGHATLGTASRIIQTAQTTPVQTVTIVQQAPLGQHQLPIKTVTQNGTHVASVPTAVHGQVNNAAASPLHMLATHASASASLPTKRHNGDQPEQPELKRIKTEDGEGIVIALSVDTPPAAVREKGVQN
UniProt P35222: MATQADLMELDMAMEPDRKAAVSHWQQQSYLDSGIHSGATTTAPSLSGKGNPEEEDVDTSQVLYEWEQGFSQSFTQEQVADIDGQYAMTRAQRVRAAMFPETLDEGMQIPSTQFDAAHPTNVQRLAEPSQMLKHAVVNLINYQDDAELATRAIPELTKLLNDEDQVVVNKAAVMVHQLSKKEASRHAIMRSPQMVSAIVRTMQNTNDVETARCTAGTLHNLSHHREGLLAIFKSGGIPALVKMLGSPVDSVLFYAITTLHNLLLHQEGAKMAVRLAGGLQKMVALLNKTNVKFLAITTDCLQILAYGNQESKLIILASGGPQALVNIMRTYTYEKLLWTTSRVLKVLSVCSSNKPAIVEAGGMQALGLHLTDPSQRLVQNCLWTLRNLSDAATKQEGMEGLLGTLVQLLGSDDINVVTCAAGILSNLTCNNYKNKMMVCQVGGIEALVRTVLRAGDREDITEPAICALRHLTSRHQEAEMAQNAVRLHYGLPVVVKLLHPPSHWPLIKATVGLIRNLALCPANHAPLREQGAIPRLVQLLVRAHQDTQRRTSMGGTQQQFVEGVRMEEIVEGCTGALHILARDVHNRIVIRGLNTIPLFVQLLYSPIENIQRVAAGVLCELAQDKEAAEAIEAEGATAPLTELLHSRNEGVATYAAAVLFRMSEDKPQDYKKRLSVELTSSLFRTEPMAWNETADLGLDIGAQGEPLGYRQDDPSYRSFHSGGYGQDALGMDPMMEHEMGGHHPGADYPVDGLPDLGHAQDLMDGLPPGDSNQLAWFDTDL
UniProt P35453: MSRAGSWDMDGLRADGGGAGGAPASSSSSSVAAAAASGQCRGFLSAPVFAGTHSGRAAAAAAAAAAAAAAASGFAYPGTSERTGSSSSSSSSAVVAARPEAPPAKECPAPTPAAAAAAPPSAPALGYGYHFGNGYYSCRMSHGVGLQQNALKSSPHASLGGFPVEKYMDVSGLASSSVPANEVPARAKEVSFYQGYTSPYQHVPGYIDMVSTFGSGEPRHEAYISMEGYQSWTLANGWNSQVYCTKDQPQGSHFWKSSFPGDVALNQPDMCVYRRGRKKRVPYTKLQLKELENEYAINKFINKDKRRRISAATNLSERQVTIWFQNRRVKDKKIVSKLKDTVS
UniProt P05412: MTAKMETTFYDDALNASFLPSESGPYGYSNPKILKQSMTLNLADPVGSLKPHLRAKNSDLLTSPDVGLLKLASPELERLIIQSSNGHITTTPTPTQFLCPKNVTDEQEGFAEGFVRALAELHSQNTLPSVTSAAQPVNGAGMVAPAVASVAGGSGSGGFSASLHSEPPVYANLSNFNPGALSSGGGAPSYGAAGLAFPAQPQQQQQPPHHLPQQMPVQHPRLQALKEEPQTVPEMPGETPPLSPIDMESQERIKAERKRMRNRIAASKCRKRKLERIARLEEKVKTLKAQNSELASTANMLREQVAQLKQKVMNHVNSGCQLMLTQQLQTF
UniProt Q5TKA1: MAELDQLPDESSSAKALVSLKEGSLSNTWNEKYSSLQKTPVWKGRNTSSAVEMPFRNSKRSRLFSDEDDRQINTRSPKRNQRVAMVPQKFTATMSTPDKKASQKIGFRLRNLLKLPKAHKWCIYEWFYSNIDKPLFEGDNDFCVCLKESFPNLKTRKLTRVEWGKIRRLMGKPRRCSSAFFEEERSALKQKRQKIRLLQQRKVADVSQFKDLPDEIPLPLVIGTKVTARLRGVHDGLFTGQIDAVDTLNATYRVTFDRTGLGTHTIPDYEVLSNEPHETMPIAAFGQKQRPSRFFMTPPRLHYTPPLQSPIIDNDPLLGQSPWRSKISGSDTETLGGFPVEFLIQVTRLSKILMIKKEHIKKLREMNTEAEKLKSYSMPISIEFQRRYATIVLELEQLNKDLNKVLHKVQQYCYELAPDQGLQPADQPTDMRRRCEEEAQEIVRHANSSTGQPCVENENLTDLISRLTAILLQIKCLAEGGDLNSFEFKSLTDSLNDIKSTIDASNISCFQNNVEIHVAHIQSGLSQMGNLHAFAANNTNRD
UniProt Q96GY3: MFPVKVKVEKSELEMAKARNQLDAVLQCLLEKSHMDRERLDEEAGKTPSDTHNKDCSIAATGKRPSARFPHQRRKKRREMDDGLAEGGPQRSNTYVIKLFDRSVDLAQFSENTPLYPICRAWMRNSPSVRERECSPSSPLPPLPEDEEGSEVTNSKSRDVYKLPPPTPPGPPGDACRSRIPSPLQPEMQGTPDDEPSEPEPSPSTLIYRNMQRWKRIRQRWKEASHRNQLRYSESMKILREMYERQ
UniProt Q6MZP7: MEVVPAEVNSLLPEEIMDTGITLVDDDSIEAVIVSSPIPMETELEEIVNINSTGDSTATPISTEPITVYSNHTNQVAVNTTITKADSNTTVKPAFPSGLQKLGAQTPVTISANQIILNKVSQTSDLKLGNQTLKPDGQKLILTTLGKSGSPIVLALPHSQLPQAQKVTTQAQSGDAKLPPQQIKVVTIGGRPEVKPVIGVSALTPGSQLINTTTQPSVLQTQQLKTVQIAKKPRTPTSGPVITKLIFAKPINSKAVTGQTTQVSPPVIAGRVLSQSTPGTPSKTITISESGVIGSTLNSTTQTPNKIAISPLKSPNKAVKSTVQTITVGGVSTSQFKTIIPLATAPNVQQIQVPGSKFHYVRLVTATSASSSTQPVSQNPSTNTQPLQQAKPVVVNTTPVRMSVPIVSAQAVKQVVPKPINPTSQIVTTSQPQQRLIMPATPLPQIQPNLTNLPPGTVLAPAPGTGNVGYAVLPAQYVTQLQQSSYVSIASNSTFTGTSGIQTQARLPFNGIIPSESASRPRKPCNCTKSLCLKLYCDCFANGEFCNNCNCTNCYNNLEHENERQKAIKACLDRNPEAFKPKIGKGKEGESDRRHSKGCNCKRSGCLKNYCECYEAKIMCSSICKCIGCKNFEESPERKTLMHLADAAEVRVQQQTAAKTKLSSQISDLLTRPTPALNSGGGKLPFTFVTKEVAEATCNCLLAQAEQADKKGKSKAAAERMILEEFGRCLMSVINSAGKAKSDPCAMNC
UniProt P10244: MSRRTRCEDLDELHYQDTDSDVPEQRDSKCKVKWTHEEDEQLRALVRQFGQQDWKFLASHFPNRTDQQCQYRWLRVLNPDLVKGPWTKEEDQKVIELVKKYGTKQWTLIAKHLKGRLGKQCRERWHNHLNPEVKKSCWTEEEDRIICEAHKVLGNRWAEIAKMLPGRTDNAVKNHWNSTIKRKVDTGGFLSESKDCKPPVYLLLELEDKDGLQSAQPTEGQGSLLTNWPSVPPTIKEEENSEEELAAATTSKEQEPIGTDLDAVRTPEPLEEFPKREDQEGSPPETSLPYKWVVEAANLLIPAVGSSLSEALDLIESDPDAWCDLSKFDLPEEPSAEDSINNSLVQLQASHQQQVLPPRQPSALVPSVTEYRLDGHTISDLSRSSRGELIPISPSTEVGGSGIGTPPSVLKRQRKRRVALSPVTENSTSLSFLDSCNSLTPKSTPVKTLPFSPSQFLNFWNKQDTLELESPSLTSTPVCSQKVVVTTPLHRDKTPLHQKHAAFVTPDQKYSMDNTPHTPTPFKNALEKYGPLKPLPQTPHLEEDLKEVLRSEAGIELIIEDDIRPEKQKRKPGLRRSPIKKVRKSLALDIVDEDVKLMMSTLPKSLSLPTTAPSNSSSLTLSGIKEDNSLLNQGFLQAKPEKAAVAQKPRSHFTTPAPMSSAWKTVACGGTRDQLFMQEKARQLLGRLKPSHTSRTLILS
UniProt P63208: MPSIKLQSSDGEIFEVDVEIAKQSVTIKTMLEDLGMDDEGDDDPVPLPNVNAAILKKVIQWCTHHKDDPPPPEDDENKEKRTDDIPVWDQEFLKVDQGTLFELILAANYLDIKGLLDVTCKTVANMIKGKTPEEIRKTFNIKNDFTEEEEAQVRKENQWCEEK
UniProt Q9Y297: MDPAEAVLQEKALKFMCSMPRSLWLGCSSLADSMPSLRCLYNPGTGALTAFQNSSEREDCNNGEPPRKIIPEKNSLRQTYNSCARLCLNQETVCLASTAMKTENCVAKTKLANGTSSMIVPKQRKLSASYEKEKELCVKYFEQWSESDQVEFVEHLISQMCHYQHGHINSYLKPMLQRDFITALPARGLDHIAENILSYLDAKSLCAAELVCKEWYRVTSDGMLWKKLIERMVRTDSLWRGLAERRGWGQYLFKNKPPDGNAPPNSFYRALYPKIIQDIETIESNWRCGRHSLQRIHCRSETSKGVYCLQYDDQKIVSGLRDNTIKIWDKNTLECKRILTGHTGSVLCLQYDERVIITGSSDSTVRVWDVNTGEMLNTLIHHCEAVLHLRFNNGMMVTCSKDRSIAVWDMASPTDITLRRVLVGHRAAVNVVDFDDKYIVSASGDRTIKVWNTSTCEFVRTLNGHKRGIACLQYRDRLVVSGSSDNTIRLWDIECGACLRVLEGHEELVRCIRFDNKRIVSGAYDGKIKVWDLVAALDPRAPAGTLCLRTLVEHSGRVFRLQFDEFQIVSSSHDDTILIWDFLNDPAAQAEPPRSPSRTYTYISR

Assay [1] concerns the target βTRCP2/FBXW11 as bait of the reciprocal TAP/MS (UniProt Q9UKB1). Kind of assay: affinity purification with mass spectrometry; same TAP/MS of SFB-tagged bait from HEK293T; the fraction in which the hit was found is not given.
For another assay, the target named is SFB-tagged MAX (human) (UniProt P61244). The assay can be described thus: affinity purification with mass spectrometry; TAP (streptavidin beads, biotin elution, S-protein beads; NETN buffer) of C-terminally SFB-tagged bait from HEK293T; chromatin fraction (pellet after NETN lysis, digested with TurboNuclease); forward and reciprocal purifications; some baits also after drug treatment.

The target in assay [2] is T1, SFB-tagged FOXM1 (human) (UniProt Q08050).
T1 sequence: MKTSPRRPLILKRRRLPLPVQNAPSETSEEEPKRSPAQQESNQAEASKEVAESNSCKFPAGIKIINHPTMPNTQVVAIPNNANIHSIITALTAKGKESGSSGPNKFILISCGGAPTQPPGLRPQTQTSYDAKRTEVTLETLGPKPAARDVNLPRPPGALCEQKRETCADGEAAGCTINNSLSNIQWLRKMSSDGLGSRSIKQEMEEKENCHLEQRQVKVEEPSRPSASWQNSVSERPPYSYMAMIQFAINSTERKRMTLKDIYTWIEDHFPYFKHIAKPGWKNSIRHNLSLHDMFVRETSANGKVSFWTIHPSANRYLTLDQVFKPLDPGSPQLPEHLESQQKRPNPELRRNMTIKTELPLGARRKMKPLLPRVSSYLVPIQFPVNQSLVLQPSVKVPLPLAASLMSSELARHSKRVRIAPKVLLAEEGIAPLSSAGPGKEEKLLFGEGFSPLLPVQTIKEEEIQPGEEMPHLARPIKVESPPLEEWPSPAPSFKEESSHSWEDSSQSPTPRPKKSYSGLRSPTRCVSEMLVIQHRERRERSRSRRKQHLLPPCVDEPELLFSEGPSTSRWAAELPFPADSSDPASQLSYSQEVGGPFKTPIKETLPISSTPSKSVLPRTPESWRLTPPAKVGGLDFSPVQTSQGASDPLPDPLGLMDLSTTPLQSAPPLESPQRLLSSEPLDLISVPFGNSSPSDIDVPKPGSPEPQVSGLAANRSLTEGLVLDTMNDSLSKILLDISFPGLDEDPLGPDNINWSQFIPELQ
The assay can be described thus: affinity purification with mass spectrometry; TAP (streptavidin beads, biotin elution, S-protein beads; NETN buffer) of C-terminally SFB-tagged bait from HEK293T; soluble fraction (supernatant of the NETN lysate); forward and reciprocal purifications.

Assay [3] has as its target T1, SFB-tagged FOXM1 (human). Kind of assay: affinity purification with mass spectrometry; TAP (streptavidin beads, biotin elution, S-protein beads; NETN buffer) of C-terminally SFB-tagged bait from HEK293T; chromatin fraction (pellet after NETN lysis, digested with TurboNuclease); forward and reciprocal purifications; some baits also after drug treatment.
Assay [4] deals with T2, SFB-tagged NFATC1 (human) (UniProt O95644).
T2 sequence: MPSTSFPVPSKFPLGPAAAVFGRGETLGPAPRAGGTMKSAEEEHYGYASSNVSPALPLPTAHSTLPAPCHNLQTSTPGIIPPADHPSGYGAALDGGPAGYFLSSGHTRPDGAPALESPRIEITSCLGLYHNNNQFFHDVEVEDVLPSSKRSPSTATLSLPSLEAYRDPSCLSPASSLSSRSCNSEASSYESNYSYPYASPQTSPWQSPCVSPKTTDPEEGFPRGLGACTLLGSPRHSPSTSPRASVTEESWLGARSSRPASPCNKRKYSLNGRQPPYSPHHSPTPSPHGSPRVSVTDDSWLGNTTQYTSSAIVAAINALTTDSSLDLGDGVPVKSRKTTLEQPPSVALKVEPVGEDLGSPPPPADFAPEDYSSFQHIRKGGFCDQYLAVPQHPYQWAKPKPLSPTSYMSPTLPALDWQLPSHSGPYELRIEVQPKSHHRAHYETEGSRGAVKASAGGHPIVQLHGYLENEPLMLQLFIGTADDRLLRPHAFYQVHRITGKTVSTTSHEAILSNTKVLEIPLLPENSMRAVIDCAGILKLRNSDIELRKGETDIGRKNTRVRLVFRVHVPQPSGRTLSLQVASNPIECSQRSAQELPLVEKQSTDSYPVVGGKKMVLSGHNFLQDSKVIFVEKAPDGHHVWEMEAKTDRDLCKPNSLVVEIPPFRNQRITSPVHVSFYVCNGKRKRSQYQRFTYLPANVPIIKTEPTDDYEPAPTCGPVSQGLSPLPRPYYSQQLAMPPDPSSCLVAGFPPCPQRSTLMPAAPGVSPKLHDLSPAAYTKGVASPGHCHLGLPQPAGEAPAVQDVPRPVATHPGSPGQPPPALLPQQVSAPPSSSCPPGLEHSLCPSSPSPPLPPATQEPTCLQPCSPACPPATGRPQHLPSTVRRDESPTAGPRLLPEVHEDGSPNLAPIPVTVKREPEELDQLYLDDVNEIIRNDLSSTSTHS
The description is as above.

Assay [5] concerns the target L3MBTL2 as bait of the reciprocal TAP/MS (UniProt Q969R5). The assay can be described thus: affinity purification with mass spectrometry; TAP (streptavidin beads, biotin elution, S-protein beads; NETN buffer) of C-terminally SFB-tagged bait from HEK293T; soluble fraction (supernatant of the NETN lysate); forward and reciprocal purifications.
In another assay the target is SFB-tagged FOXK2 (human) (UniProt Q01167). Kind of assay: affinity purification with mass spectrometry; TAP (streptavidin beads, biotin elution, S-protein beads; NETN buffer) of C-terminally SFB-tagged bait from HEK293T; chromatin fraction (pellet after NETN lysis, digested with TurboNuclease); forward and reciprocal purifications; some baits also after drug treatment.

For assay [6], the target named is E2F6 as bait of the reciprocal TAP/MS (UniProt O75461). Described as above.
The target of another assay is T3, SFB-tagged FOXN2 (human) (UniProt P32314).
T3 sequence: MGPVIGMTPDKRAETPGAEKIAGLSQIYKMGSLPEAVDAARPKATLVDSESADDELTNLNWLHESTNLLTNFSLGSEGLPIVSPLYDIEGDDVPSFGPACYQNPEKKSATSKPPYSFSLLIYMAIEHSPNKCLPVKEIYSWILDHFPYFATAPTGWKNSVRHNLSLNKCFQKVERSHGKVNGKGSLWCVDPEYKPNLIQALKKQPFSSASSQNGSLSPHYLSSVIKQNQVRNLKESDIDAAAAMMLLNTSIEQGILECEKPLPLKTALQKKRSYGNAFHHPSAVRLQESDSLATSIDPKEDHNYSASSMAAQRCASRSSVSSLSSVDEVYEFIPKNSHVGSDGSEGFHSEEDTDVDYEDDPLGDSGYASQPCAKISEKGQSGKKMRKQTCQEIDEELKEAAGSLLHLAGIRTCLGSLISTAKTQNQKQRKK
Kind of assay: affinity purification with mass spectrometry; TAP (streptavidin beads, biotin elution, S-protein beads; NETN buffer) of C-terminally SFB-tagged bait from HEK293T; soluble fraction (supernatant of the NETN lysate); forward and reciprocal purifications.

No constants are given. Whether binding was seen depends on the method and setting. Binding seen in cells or lysates may run through a third protein. These calls come from enrichment with a bait or labelling near it, and not all partners need be listed. For some assays here: No binding means not detected with the bait. For some assays here: Tags and fused reporters may be left off the sequences shown.

Regarding “CTNNB1 (endogenous) (from UniProt P35222 1-781)”, the binding entry in assay [1] is “binds”.

As to “E2F6 (endogenous) (from UniProt O75461 1-281)”, in the assay with SFB-tagged MAX (human), the binding result is reported as “binds”.

Consider “EPRS (endogenous) (from UniProt P07814 1-1512)”, for which the binding entry with SFB-tagged FOXM1 (human) [2] is recorded as “binds”; in the assay with SFB-tagged FOXM1 (human) [3], “no binding (only in the chromatin fraction)”.

For “FOXK2 (endogenous) (from UniProt Q01167 1-660)”, the binding entry with SFB-tagged MAX (human) is “binds”.

With “HOXD13 (endogenous) (from UniProt P35453 1-343)”, the binding result in [4] is listed as “binds”.

Turning to “JUN (endogenous) (from UniProt P05412 1-331)”, the binding result in assay [4] is on record as “binds”.

Take “L3MBTL2 (endogenous) (from UniProt Q969R5 1-705)”: in the assay with SFB-tagged MAX (human), the binding entry is “binds”.

For “LIN9 (endogenous) (from UniProt Q5TKA1 1-542)”, the binding entry was “no binding (only in the soluble fraction)” with SFB-tagged FOXM1 (human) [2] and “binds” in the assay with SFB-tagged FOXM1 (human) [3].

Take “LIN37 (endogenous) (from UniProt Q96GY3 1-246)”: the binding result in the assay with SFB-tagged FOXM1 (human) [2] is listed as “no binding (only in the soluble fraction)”; with SFB-tagged FOXM1 (human) [3], “binds”.

Take “LIN54 (endogenous) (from UniProt Q6MZP7 1-749)”: the binding result was “no binding (only in the soluble fraction)” with SFB-tagged FOXM1 (human) [2] and “binds” in the assay with SFB-tagged FOXM1 (human) [3].

Turning to “MAX (endogenous) (from UniProt P61244 1-160)”, the binding entry (in assay [5]; with SFB-tagged FOXK2 (human); in assay [6]) was “binds” throughout.

For the substance “MYBL2 (endogenous) (from UniProt P10244 1-700)”, the binding result with SFB-tagged FOXM1 (human) [2] was “no binding (only in the soluble fraction)”; in the assay with SFB-tagged FOXM1 (human) [3], “binds”.

Turning to “SKP1 (endogenous) (from UniProt P63208 1-163)”, the binding entry (with SFB-tagged FOXN2 (human); in assay [1]) was “binds” each time.

With “βTRCP2 (endogenous) (from UniProt Q9UKB1 1-542)”, the binding entry with SFB-tagged FOXN2 (human) is given as “binds”.

For the substance “βTRCP (endogenous) (from UniProt Q9Y297 1-605)”, the binding entry with SFB-tagged FOXN2 (human) is given as “binds”.
